Laboratory results: the supplement of paper PMC10727501
Some of the results follow. Repeats in this data set agree poorly, so a single value says little.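 Free-swimming zebrafish larvae were assessed for O-bend response probability to dark flashes (naive: first five; training: remaining flashes across four 60-flash blocks; test: later 60-flash block) and for OMR turning toward alternating leftward/rightward LED motion. Six treated larvae were compared against sixty 0.1% DMSO controls; hits required |SSMD|≥2.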

How the values were obtained:
Conditions in all cases: 10 µM; pre-incubation: 30-90 min
[1] = tested on: Danio rerio larvae (5 dpf, TLF); assay: OMR-Perf (SSMD vs DMSO vehicle); higher = higher than vehicle (e.g. higher dark-flash O-bend response probability, or better optomotor performance)
[2] = tested on: Danio rerio larvae (5 dpf, TLF); assay: Prob-Test (SSMD vs DMSO vehicle); higher = higher than vehicle (e.g. higher dark-flash O-bend response probability, or better optomotor performance)
[3] = tested on: Danio rerio larvae (5 dpf, TLF); assay: Prob-Naive (SSMD vs DMSO vehicle); higher = higher than vehicle (e.g. higher dark-flash O-bend response probability, or better optomotor performance)
[4] = tested on: Danio rerio larvae (5 dpf, TLF); assay: Prob-Train (SSMD vs DMSO vehicle); higher = higher than vehicle (e.g. higher dark-flash O-bend response probability, or better optomotor performance)

| Compound | OMR-Perf [1] | Prob-Test [2] | Prob-Naive [3] | Prob-Train [4] |
| --- | --- | --- | --- | --- |
| O.O=[Si]=O.O=[Si]=O.O=[Si]=O.O=[Si]=O.[O]=[Mg].[O]=[Mg].[O]=[Mg] | -0.402 | -0.671 | -0.378 | -0.305 |
| O=C[C@H](O)[C@@H](O)[C@H](O)[C@H](O)CO [Dextrose] | -0.326 | 0.181 | -0.337 | -0.455 |
| CN1CCN(c2nc(C3=C(c4c[nH]c5ccccc45)C(=O)NC3=O)c3ccccc3n2)CC1 [Sotrastaurin] | -0.284 | 0.838 | -0.0896 | 0.508 |
| Nc1cc(N2CCCCC2)nc(N)[n+]1[O-] [Minoxidil] | -0.835 | -0.0796 | -0.865 | -0.12 |
| C[N+](C)(C)C[C@H](O)CC(=O)[O-] [L-carnitine] | 0.318 | -0.0091 | 0.516 | -0.0116 |
| Cc1coc2c1C(=O)C(=O)c1c-2ccc2c(C)cccc12 [Tanshinone I] | -0.336 | -0.757 | -0.0234 | -0.176 |
| NC(=O)c1cnccn1 [Pyrazinamide] | -0.193 | 0.16 | -0.0907 | -0.255 |
| c1ccc2[nH]c(-c3cscn3)nc2c1 [Thiabendazole] | -0.465 | -1.21 | -0.34 | -1.19 |
| Nc1ccn(C[C@@H](CO)OCP(=O)(O)O)c(=O)n1 [Cidofovir (Vistide)] | -0.252 | 0.301 | 0.312 | 0.0231 |
| Nc1nc2c(ncn2COC(CO)CO)c(=O)[nH]1 [Ganciclovir] | -0.917 | 0.0499 | -0.341 | 0.0654 |
| COc1ccc(-c2nc3cc(C4=NNC(=O)CC4C)ccc3[nH]2)cc1 (stereo unspecified) [Pimobendan] | 0.163 | 0.126 | -0.487 | 0.0573 |
| CCN1CCN(c2cc(-c3ccc(F)cc3)c3c(n2)CCCCCC3)CC1 [Blonanserin (Lonasen)] | -0.768 | -1.52 | 0.0509 | -0.607 |
| COc1ccc2cc1Oc1ccc(cc1)C[C@H]1c3cc(c(OC)cc3CCN1C)Oc1c(OC)c(OC)cc3c1[C@@H](C2)N(C)CC3 [Tetrandrine] | 0.277 | 0.327 | 0.0551 | -0.314 |
| COc1cccc2cc(-c3nc([C@H]4CC[C@H](C(=O)O)CC4)n4ncnc(N)c34)[nH]c12 | 0.126 | -0.496 | -0.13 | 0.126 |
| Oc1c(Br)cc(Br)c2cccnc12 [Broxyquinoline] | -1.22 | -1.24 | -0.723 | -1.41 |
| NC(N)=NCCN1CCCCCCC1.NC(N)=NCCN1CCCCCCC1.O=S(=O)(O)O [Guanethidine Sulfate] | -0.274 | -0.0238 | 0.433 | -0.245 |
| C/C=C/C1=C(C(=O)O)N2C(=O)[C@@H](NC(=O)[C@H](N)c3ccc(O)cc3)[C@H]2SC1.O [Cefprozil hydrate (Cefzil)] | -0.0348 | -0.347 | 0.13 | -0.109 |
| O=C(O)c1ccccc1 [Benzoic Acid] | -0.0599 | 0.598 | 0.306 | -0.0497 |
| CN1CCC(CNc2ccc3ncc(-c4cccc(OC(F)(F)F)c4)n3n2)CC1 [SGI-1776 free base] | -0.00186 | 0.485 | 0.102 | 0.201 |
| CC12CC3CC(C)(C1)CC(N)(C3)C2.Cl [Memantine HCl] | -0.143 | 0.0498 | 0.357 | 0.149 |
| CSc1ccc2c(c1)N(CCC1CCCCN1C)c1ccccc1S2.Cl (stereo unspecified) [Thioridazine HCl] | -0.701 | -1.27 | 0.271 | -0.782 |
| Nc1nc(Nc2ccc(S(N)(=O)=O)cc2)nn1C(=O)c1c(F)cccc1F | 0.235 | -0.249 | 0.471 | -0.0892 |
| C=CC(=O)Nc1cccc(Nc2nc(Nc3ccc(N4CCN(C(C)=O)CC4)cc3OC)ncc2C(F)(F)F)c1 | 0.473 | -0.292 | -0.0443 | -0.399 |
| CCOC(=O)N1c2ccc(C(F)(F)F)cc2[C@H](N(Cc2cc(C(F)(F)F)cc(C(F)(F)F)c2)C(=O)OC)C[C@H]1CC [Torcetrapib] | -0.262 | -0.273 | 0.0846 | -0.419 |
| Nc1ncn([C@@H]2O[C@H](CO)[C@@H](O)[C@@H]2O)c(=O)n1 [Azacitidine] | -0.832 | 0.228 | -0.264 | 0.51 |
| O=C(O)CCNC(=O)c1ccccc1 [Betamipron] | -0.49 | 0.602 | -0.0511 | 0.417 |
| CC(C)(C)Cn1c(N)nc2ccc(-c3[nH]c(C(C)(C)C)nc3-c3ccc(F)cc3)nc21.CS(=O)(=O)O.CS(=O)(=O)O | -0.0317 | -0.206 | 0.313 | -0.0723 |
| COc1ccc(Cn2ccc3ccc(C(=O)NO)cc32)cc1 | -0.104 | -0.973 | 0.245 | -0.8 |
| C[C@@]12CC[C@H]3c4ccc(O)cc4C[C@@H](CCCCCCCCCS(=O)CCCC(F)(F)C(F)(F)F)[C@H]3[C@@H]1CC[C@@H]2O (stereo partly specified) [Fulvestrant] | -0.0842 | 0.19 | 0.153 | -0.0274 |

Another view of 2 compounds above.
Compound	OMR-Perf [1]	Prob-Test [2]	Prob-Naive [3]	Prob-Train [4]
c1ccc2[nH]c(-c3cscn3)nc2c1 [Thiabendazole]	-0.465	-1.21	-0.34	-1.19
Nc1ccn(C[C@@H](CO)OCP(=O)(O)O)c(=O)n1 [Cidofovir (Vistide)]	-0.252	0.301	0.312	0.0231
